Values from PubChem BioAssay AID1259254 (NCATS, 2017)
The whole screen tested about 59,000 reagents; this is a part drawn at random. Of all reagents, about 1,550 (2.6%) got an active call. 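G2 share is only a proxy for re-replication; each gene was hit by three separate siRNAs, and active genes were retested.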 Further read-outs or replicates are left out here. Not given: the amount of reagent.

Assay: 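Genome-wide screen for genes that prevent DNA re-replication in cancer cells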 (primary screen)
Cell system: human HCT116 colorectal cancer cells
Reagents: single siRNA against human genes
Time to read-out: 3 days
Detection: 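Imaged Hoechst DNA stain sorts each cell into a cycle phase by DNA amount; per plate, G2 fraction set to 0% for non-targeting and 100% for GMNN siRNA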
Direction: G2 robust z-score: higher = more G2 cells, more excess DNA replication
Hit rule: 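Active siRNAs have a G2 robust z of 5 or more median absolute deviations over the median, which in these data means about 38% or higher of GMNN control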

G2 robust z-score, by gene and reagent
RAD23A (RAD23 nucleotide excision repair protein A): SID160715590 6.7 active; SID160715591 0.454 inactive; SID160715593 -1.15 inactive
RIMBP3 (RIMS binding protein 3): SID160753220 0.598 inactive; SID160753221 -0.474 inactive; SID160753222 -0.0655 inactive
RECQL5 (RecQ like helicase 5): SID160722119 0.973 inactive; SID160722120 -0.664 inactive; SID160722122 0.586 inactive
LINC03040 (long independently transcribed non-coding RNA 3040): SID160761681 -0.758 inactive; SID160761683 -0.000991 inactive; SID160761684 4 inactive
OR4C45: SID160767485 -0.132 inactive; SID160767486 1.73 inactive; SID160767487 0.199 inactive
SLC25A40: SID160744699 -0.486 inactive; SID160744701 -0.98 inactive; SID160744702 -0.0797 inactive
BRSK2 (BR serine/threonine kinase 2): SID160721289 -0.452 inactive; SID160721290 1.04 inactive; SID160721291 -1.36 inactive
PDSS2 (decaprenyl diphosphate synthase subunit 2): SID160745611 -0.251 inactive; SID160745612 -0.925 inactive; SID160745613 0.624 inactive
MRPL54 (mitochondrial ribosomal protein L54): SID160724745 0.747 inactive; SID160732359 -0.151 inactive; SID160755458 0.047 inactive
TARS1 (threonyl-tRNA synthetase 1): SID160717712 -0.576 inactive; SID160717713 -0.28 inactive; SID160717714 0.88 inactive
